In PubChem BioAssay AID256 (DTP/NCI, 2004) one finds survivor count and T/C data, which are given here for 23 molecules.

The list does not hold the whole screen: it gathers tests that were run many times, whatever their T/C, doses with no T/C, and many T/C values between a quarter and a half above the control. Other doses and runs of a compound stand elsewhere. T/C: endpoint of the treated group in % of that of the vehicle group. Some entries give survivors of the animals treated and no T/C: the source holds a T/C of zero for them, seemingly a mark for toxic or unscored doses. Some doses without a T/C left all or most animals alive at the check, yet need not have been tolerated: survival well below the control is almost never listed, so the zero probably covers shortened survival too. Counts of survivors are from the toxicity check (mostly the fifth day) where no day follows; animals may have died later. Schedules are NCI's codes, taken here to give the interval after Q, in days (D) or hours (H), and the number of doses after X. Some entries hold several experiments; the results are listed from low to high. Where survival is the endpoint, the PubChem record calls one and a half times the control and up active, and a quarter to a half above the control has no call in these data; cut-offs in other NCI protocols can differ. Some T/C values are followed by the survivors on the day toxicity was checked, most often the fifth; without a count, all were alive then.

The assay deals with CD2F1 mice, L1210 leukemia ip, survival T/C. Description: NCI In Vivo Anticancer Drug Screen. Data for tumor model L1210 Leukemia (intraperitoneal) in CD2F1 (CDF1) mice. Conditions: higher T/C = longer survival. Put shortly: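 Implant tumor; dose compound or vehicle; measure endpoint in both groups; report treated divided by control.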
Where [1] appears, read: T/C endpoint: mean survival time, dose: 100.0 mg/kg/injection, schedule: Q01DX001 (ip), vehicle: saline with Tween-80.
Where [2] appears, read: T/C endpoint: mean survival time, dose: 200.0 mg/kg/injection, schedule: Q01DX001 (ip), vehicle: saline with Tween-80.
[3] abbreviates: T/C endpoint: mean survival time, dose: 400.0 mg/kg/injection, schedule: Q01DX001 (ip), vehicle: saline with Tween-80.
[4] abbreviates: T/C endpoint: mean survival time, dose: 400.0 mg/kg/injection, schedule: Q04DX003 (ip), vehicle: saline with Tween-80.
Where [5] appears, read: T/C endpoint: mean survival time, dose: 200.0 mg/kg/injection, schedule: Q04DX003 (ip), vehicle: saline with Tween-80.
The mark [6] stands for this setting: T/C endpoint: mean survival time, dose: 150.0 mg/kg/injection, schedule: Q01DX001 (ip), vehicle: saline.
[7] abbreviates: T/C endpoint: mean survival time, dose: 300.0 mg/kg/injection, schedule: Q01DX001 (ip), vehicle: saline.
Setting [8] is: T/C endpoint: mean survival time, dose: 400.0 mg/kg/injection, schedule: Q04DX002 (ip), vehicle: saline with Tween-80.
Where [9] appears, read: T/C endpoint: mean survival time, dose: 200.0 mg/kg/injection, schedule: Q04DX002 (ip), vehicle: saline with Tween-80.

On to `Oc1ccccc1C=NCCC[N-]CCCN=Cc1ccccc1O.[Co]`, for which the survivor count (T/C endpoint: mean survival time, dose: 100.0 mg/kg/injection, schedule: Q01DX009 (ip), vehicle: saline) was 1 of 6 and the survivor count (T/C endpoint: mean survival time, dose: 200.0 mg/kg/injection, schedule: Q01DX009 (ip), vehicle: saline) is 0 of 6.

In the case of `CCS(=O)(=O)/C=C\S(=O)(=O)CC`, the survivor count is reported as 0 of 6 (T/C endpoint: mean survival time, dose: 12.5 mg/kg/injection, schedule: Q04DX003 (ip), vehicle: Klucel (hydroxypropylcellulose) (HPC)); 0 of 6 (T/C endpoint: mean survival time, dose: 25.0 mg/kg/injection, schedule: Q04DX003 (ip), vehicle: Klucel (hydroxypropylcellulose) (HPC)); 0 of 6 (T/C endpoint: mean survival time, dose: 50.0 mg/kg/injection, schedule: Q04DX003 (ip), vehicle: Klucel (hydroxypropylcellulose) (HPC)).

As to `[CH3][Sn]([CH3])([Br])[CH2]CCBr`, the survivor count was 1 of 3 (T/C endpoint: mean survival time, dose: 1.56 mg/kg/injection, schedule: Q01DX009 (ip), vehicle: saline with Tween-80); 0 of 3 (T/C endpoint: mean survival time, dose: 3.12 mg/kg/injection, schedule: Q01DX009 (ip), vehicle: saline); 0 of 3 (T/C endpoint: mean survival time, dose: 6.25 mg/kg/injection, schedule: Q01DX009 (ip), vehicle: saline); 0 of 3 (T/C endpoint: mean survival time, dose: 12.5 mg/kg/injection, schedule: Q01DX009 (ip), vehicle: saline).

For `CN(C)CC1CCCCC1OC(=O)c1ccccc1` (configuration not stated), the survivor count is, setting by setting: (T/C endpoint: mean survival time, dose: 200.0 mg/kg/injection, schedule: Q04DX003 (ip), vehicle: water) 0 of 3; (T/C endpoint: mean survival time, dose: 400.0 mg/kg/injection, schedule: Q04DX003 (ip), vehicle: water) 0 of 3.

As to `CC(C)=CC[Se]c1ncnc2c1ncn2C1OC(CO)C(O)C1O` (configuration not stated), the survivor count by setting is: (T/C endpoint: mean survival time, dose: 100.0 mg/kg/injection, schedule: Q01DX005 (ip), vehicle: saline) 3 of 6; (T/C endpoint: mean survival time, dose: 200.0 mg/kg/injection, schedule: Q01DX005 (ip), vehicle: saline) 0 of 6.

As for `CCc1c(CNc2ccc(C(=O)NC(CC(=O)O)C(=O)O)cc2)ccc2nc(N)nc(N)c12` (configuration not stated), the T/C by setting is: (T/C endpoint: mean survival time, dose: 2.0 mg/kg/injection, schedule: Q01DX001 (ip), vehicle: saline) 127 % of control; (T/C endpoint: mean survival time, dose: 8.0 mg/kg/injection, schedule: Q01DX001 (ip), vehicle: saline) 135 % of control.

On to `[Co].[N-]=C=S.[N-]=C=S.[N-]=C=S.[NH2-].[NH2-].[NH2-]`, for which the T/C reads like this: under setting [1], 94, 97, 101, 110 % of control; under setting [2], 87, 101, 103, 109 % of control [5 of 6 alive]; under setting [3], 121 % of control [2 of 3 alive]. For the same molecule, the survivor count under setting [3] is 0 of 6 and 1 of 6; the survivor count (T/C endpoint: mean survival time, dose: 600.0 mg/kg/injection, schedule: Q01DX001 (ip), vehicle: saline with Tween-80) is on record as 0 of 6.

As to `CCCCCCCCCCCCCCC/C([O-])=N/[N+](C)(C)CC(C)O` (configuration not stated), the survivor count reads like this: (T/C endpoint: mean survival time, dose: 200.0 mg/kg/injection, schedule: Q01DX001 (ip), vehicle: saline) 10 of 10; (T/C endpoint: mean survival time, dose: 200.0 mg/kg/injection, schedule: Q01DX009 (ip), vehicle: saline with Tween-80) 2 of 3; (T/C endpoint: mean survival time, dose: 400.0 mg/kg/injection, schedule: Q01DX001 (ip), vehicle: saline) 8 of 10; (T/C endpoint: mean survival time, dose: 800.0 mg/kg/injection, schedule: Q01DX001 (ip), vehicle: saline) 3 of 6 and 7 of 10.

For `CCCCCCCCCCCCCCCCCC[N+]1(C)CCC1C` (configuration not stated), the survivor count runs as follows: (T/C endpoint: mean survival time, dose: 6.25 mg/kg/injection, schedule: Q01DX001 (ip), vehicle: saline) 2 of 6; (T/C endpoint: mean survival time, dose: 12.5 mg/kg/injection, schedule: Q01DX001 (ip), vehicle: saline) 1 of 6; (T/C endpoint: mean survival time, dose: 25.0 mg/kg/injection, schedule: Q01DX001 (ip), vehicle: saline) 0 of 6; (T/C endpoint: mean survival time, dose: 50.0 mg/kg/injection, schedule: Q01DX001 (ip), vehicle: saline) 0 of 6; under setting [1], 0 of 6; under setting [2], 0 of 6. Under setting [3], the survivor count was 0 of 6.

For the molecule `O=C(Nc1ccc2c(c1)OCO2)O/N=C1\C(=O)Nc2ccccc21`, the survivor count under setting [4] is listed as 0 of 6.

For the molecule `O=c1c(O)c(-c2cc(O)c(O)c(O)c2)oc2cc(O)cc(O)c12`, where the note is “T/C endpoint: mean survival time, dose: 400.0 mg/kg/injection, schedule: Q01DX009 (ip), vehicle: saline with Tween-80”, the survivor count is reported as 5 of 10.

On to `CCCCNC(C)C1(O)Cc2c(O)c3c(c(O)c2C(OC2CC(N)C(O)C(C)O2)C1)C(=O)c1c(OC)cccc1C3=O` (configuration not stated), for which the T/C is, setting by setting: (T/C endpoint: mean survival time, dose: 20.0 mg/kg/injection, schedule: Q01DX009 (ip), vehicle: water) 128 % of control; (T/C endpoint: mean survival time, dose: 40.0 mg/kg/injection, schedule: Q01DX009 (ip), vehicle: water) 132 % of control; (T/C endpoint: mean survival time, dose: 80.0 mg/kg/injection, schedule: Q01DX009 (ip), vehicle: water) 138 % of control.

In the case of `COc1cccc2c1CCN1C3=C(CC(OC)CC3)C(=O)CC21` (configuration not stated), the survivor count under setting [5] is recorded as 0 of 6 and the survivor count under setting [4] is 0 of 6.

As to `Nc1ncn(C2CC(O)C(CO)O2)c(=O)n1` (configuration not stated), the T/C (T/C endpoint: mean survival time, dose: 2.0 mg/kg/injection, schedule: Q01DX009 (ip), vehicle: Klucel (hydroxypropylcellulose) (HPC)) was 128 % of control; the T/C (T/C endpoint: mean survival time, dose: 2.0 mg/kg/injection, schedule: Q01DX009 (ip), vehicle: saline) is 143 and 149 % of control; the T/C (T/C endpoint: mean survival time, dose: 4.0 mg/kg/injection, schedule: Q01DX009 (ip), vehicle: saline) is 126 % of control; the T/C (T/C endpoint: mean survival time, dose: 133.0 mg/kg/injection, schedule: Q04DX003 (ip), vehicle: saline with Tween-80) was 130 % of control; the T/C under setting [5] is 127 % of control; the T/C (T/C endpoint: mean survival time, dose: 300.0 mg/kg/injection, schedule: Q04DX003 (ip), vehicle: saline with Tween-80) was 139 % of control. Further, the T/C reads like this: (T/C endpoint: median survival time, dose: 2.0 mg/kg/injection, schedule: Q01DX009 (ip), vehicle: saline) 131 % of control; (T/C endpoint: median survival time, dose: 4.0 mg/kg/injection, schedule: Q01DX009 (ip), vehicle: saline) 137 % of control.

For the molecule `CC(CO)CCC1OC2CC3C4CCC5CC(O)CCC5(C)C4CCC3(C)C2C1C` (configuration not stated), the survivor count under setting [3] is 6 of 6.

With `N/N=C(\N)N(Cc1ccccc1)c1ccccc1`, the survivor count runs as follows: (T/C endpoint: mean survival time, dose: 75.0 mg/kg/injection, schedule: Q01DX001 (ip), vehicle: saline) 3 of 6; under setting [6], 0 of 6; under setting [7], 0 of 6.

`OC(CC(CC(O)(C(F)(F)F)C(F)(F)F)=NNc1ccccc1)(C(F)(F)F)C(F)(F)F`: the survivor count (T/C endpoint: mean survival time, dose: 100.0 mg/kg/injection, schedule: Q01DX009 (ip), vehicle: saline with Tween-80) is 3 of 6.

As for `COCC(O)CN1CCN(c2ccccc2C)CC1` (configuration not stated), the survivor count under setting [5] is reported as 1 of 6 and the survivor count under setting [4] was 0 of 6.

As for `CC1(C)CC(=O)C=C(NCc2ccccc2)C1`, the survivor count under setting [4] was 6 of 6.

As for `CC1(C(=O)c2ccccc2)CC2C=CC1C2` (configuration not stated), the survivor count under setting [8] is 3 of 3.

As to `O=S(=O)([O-])O.O=S(O)S(=O)O.[Co+3].[NH2-].[NH2-].[NH2-].[NH2-].[NH2-]`, the survivor count runs as follows: under setting [9], 1 of 3; under setting [8], 0 of 3.

For the molecule `CCCCCCCCCCCCCCCCCCN1C(=O)C2C3CCC(O3)C2C1=O` (configuration not stated), the survivor count (T/C endpoint: mean survival time, dose: 100.0 mg/kg/injection, schedule: Q04DX002 (ip), vehicle: saline with Tween-80) is listed as 3 of 3; the survivor count under setting [9] is recorded as 3 of 3; the survivor count under setting [8] is 0 of 3.

For `CN(C)C(=C1C=CC=C1)N(C)C`, the survivor count under setting [6] is 2 of 6 and the survivor count under setting [7] was 0 of 6.
